Assay results from article PMC10406883.
No constants are given. Whether binding was seen depends on the method and setting. Binding seen in cells or lysates may run through a third protein. These calls come from enrichment with a bait or labelling near it, and not all partners need be listed.

Target: T1, glycosyltransferase B3GNT3, overexpressed (B3GNT3^OE) (UniProt Q9Y2A9)
T1 sequence: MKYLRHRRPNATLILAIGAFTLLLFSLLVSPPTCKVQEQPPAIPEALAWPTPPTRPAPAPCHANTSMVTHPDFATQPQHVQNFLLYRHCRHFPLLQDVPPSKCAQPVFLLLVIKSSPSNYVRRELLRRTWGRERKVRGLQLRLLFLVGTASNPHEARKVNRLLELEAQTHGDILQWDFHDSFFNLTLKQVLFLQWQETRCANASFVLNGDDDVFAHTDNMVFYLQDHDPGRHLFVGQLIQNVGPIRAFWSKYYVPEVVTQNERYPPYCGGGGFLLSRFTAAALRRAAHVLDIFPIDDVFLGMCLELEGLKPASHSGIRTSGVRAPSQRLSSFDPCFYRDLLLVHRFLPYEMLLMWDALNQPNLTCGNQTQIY
Assay: affinity purification with mass spectrometry; IP-LC-MS/MS from B3GNT3^OE PANC-1 cells

## 4F2hc (heavy chain subunit of system Xc-, encoded by the SLC3A2 gene), endogenous (from UniProt P08195-1 1-630)
  binding: binds
